From patent US20140099354A1, “BIOPASSIVATING MEMBRANE STABILIZATION BY MEANS OF NITROCARBOXYLIC ACID-CONTAINING PHOSPHOLIPIDS IN PREPARATIONS AND COATINGS” (priority 2011, published 2014)
Some entries share one result that the patent states for a list of compounds. For at least one compound, name, drawing or mass did not settle the structure.

Settings: stronger effect than SNOPC and SNLPC

Compound: CCCCCCCCC=C(CCCCCCCC(=O)OC[C@H](COP(=O)(O)OC1C(O)C(O)C(O)C(O)C1O)OC(=O)CCCCCCCC(=CCCCCCCCC)[N+](=O)[O-])[N+](=O)[O-] (some centres unmarked) [Example F, 1,2-di-(9-nitrooleoyl)-sn-3-glycerophosphatidylinositol]
- effect on the membrane melting point (reduction): 10-20%

Compound: CCCCCCCC/C=C(\CCCCCCCC(=O)OC[C@H](COP(=O)(O)OCCN)OC(=O)CCCCCCC/C(=C\CCCCCCCC)[N+](=O)[O-])[N+](=O)[O-] [Example D, 1,2-di-(9-nitrooleoyl)-sn-3-glycero-phosphatidylethanolamine]
- effect on the membrane melting point (reduction): 10-20%
